Test results reported in PubChem BioAssay AID1259354 (Paczesny and Yang Labs, IUPUI and University of Michigan, 2018).
Values joined by “and” are separate entries in the source; they are usually repeats but may differ in a detail not shown here. Equal entries are not always repeated. Screen size: about 78,000 compounds; about 1,800 (2.3%) were called active. Inconclusive results, whose numbers are uncertain, are shown with a selection of clear calls. No stated cut-off is given here; in the data, active means inhibition above about 30%; inconclusive means mostly about 10% to 28%; inactive means weaker than that.

Protein sequences, listed by entry. Tags and fused reporters are not part of them. Lines headed by an entry give the natural chain unless they say otherwise; changes in a name come on top.
UniProt Q01638: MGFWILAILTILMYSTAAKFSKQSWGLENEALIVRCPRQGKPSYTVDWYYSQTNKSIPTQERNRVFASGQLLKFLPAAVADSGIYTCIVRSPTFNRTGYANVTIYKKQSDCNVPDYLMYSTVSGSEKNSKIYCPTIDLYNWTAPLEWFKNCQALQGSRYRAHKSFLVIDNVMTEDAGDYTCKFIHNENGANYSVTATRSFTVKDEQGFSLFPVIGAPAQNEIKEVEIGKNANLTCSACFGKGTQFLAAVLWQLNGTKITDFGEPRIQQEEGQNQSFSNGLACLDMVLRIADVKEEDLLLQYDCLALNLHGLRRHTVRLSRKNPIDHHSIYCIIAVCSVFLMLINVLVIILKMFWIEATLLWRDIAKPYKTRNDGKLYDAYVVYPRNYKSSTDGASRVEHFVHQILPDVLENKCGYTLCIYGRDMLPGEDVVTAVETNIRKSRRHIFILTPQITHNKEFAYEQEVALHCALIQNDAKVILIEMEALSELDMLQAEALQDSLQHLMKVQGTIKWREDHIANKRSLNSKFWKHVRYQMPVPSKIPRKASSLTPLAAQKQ

molecular target: Interleukin-1 receptor-like 1 (Homo sapiens) (UniProt Q01638); experiment: blocks human ST2 binding to IL-33, primary screen, biochemical, AlphaLISA (AID 1259354); conditions: AlphaLISA ST2-Fc/biotin-IL-33 interaction, 1 h; at 17 µM, active compounds read high

Structure (SMILES)	inhibition
Cc1ccc(Cc2c(C)nc3nc(SCC(=O)NCc4cccs4)nn3c2C)cc1	inconclusive: 10%
c1ccc(C2(c3ccccc3)CC2CN2CC(c3ccncc3)C2)cc1 (stereo not given)	inconclusive: 14%
O=C(Cn1cnc2c(cnn2-c2ccccc2)c1=O)Nc1cccc(F)c1	inconclusive: 13%
CCOc1cc2c(cc1OCC)C1C(C(=O)Nc3cc(C)ccn3)c3ccccc3C(=O)N1CC2 (stereo not given)	inactive
Cc1cccc2nc(C(=O)N3CCc4c(cc(-c5ccncc5)c(=O)n4CCN4CCCCC4)C3)cn12	inactive
O=C(Nc1ccccc1)Nc1cccc2cccnc12	inconclusive: 12%
O=C(Nc1cc(Cl)ccc1O)c1noc2c1CCCCC2	inconclusive: 14%
CNC(=O)CN(c1ccc(C)cc1C)S(=O)(=O)c1ccccc1	inconclusive: 13%
CCNC(=O)N[C@H]1CC[C@]2(C)CCC([C@H](C)C(=O)NCCN3CCOCC3)[C@H](O)[C@H]2[C@@H]1C (stereo not given in full)	inconclusive: 18%
COc1cccc(F)c1-c1c(-c2ccccc2)ncn1Cc1cnc(C)cn1	inactive
COc1ccc(F)c(CN2CCCC3(CCN(c4nc(C)cc(C)n4)C3)C2=O)c1 (stereo not given)	inconclusive: 11%
CCOC(=O)c1c(NC(=O)C(C)Oc2ccc(F)cc2)sc(C)c1C (stereo not given)	inconclusive: 19%
COc1ccc(-n2ncc3c2CC(C)(C)CC3NC(=O)Cc2cnc3ncnn3c2)cc1 (stereo not given)	inconclusive: 15%
Cc1ccccc1/C=C1\Sc2ccccc2N(CC(=O)NC2CCCCC2)C1=O	inconclusive: 23%
COc1ccc(-c2csc(=Nc3ccccc3)n2CCO)cc1	active: 56% and active: 38%
CCOCCCn1c(SCC(=O)c2ccccc2)nc2c(sc3ccccc32)c1=O	inconclusive: 13%
Cc1ccc(-c2cc(O)c3c(c2)CN(C(=O)c2ccnc(N)c2)CCO3)s1	inconclusive: 15%
CC1=NN(c2ccc(Cl)cc2Cl)C(=O)/C1=C/c1ccc(F)cc1	inconclusive: 19%
Cc1ccc(-c2nc(S(=O)(=O)c3ccccc3)c(SCC(=O)NCC3CCCO3)o2)cc1 (stereo not given)	inconclusive: 11%
C=CCn1c(-c2ccc(C)cc2)csc1=Nc1c(C)n(C)n(-c2ccccc2)c1=O	inconclusive: 16%
N/C(=N\OC(=O)c1ccccc1F)c1nonc1N	inactive
CC(C)(C)C1CCC(OC(=O)CN2CCCCC2)CC1 (stereo not given)	inconclusive: 22%
COc1ccc(C2=NNC(c3ccc(Br)cc3)C2)c(O)c1 (stereo not given)	inconclusive: 14%
COc1cccc(C2CC(c3cccc(Br)c3)n3nc(N)nc3N2)c1 (stereo not given)	inconclusive: 15%
O=C(Cc1ccc(O)c(Cl)c1)N1C[C@H]2C[C@H](O)[C@H](O)C[C@H]2C1	inactive

3 compounds already listed, sorted by length of the SMILES, low to high.
Structure (SMILES)	inhibition
COc1ccc(C2=NNC(c3ccc(Br)cc3)C2)c(O)c1 (stereo not given)	inconclusive: 14%
c1ccc(C2(c3ccccc3)CC2CN2CC(c3ccncc3)C2)cc1 (stereo not given)	inconclusive: 14%
CCOCCCn1c(SCC(=O)c2ccccc2)nc2c(sc3ccccc32)c1=O	inconclusive: 13%
